# Results of single-concentration screens

Chains of the proteins cited; added tags and fusions are not shown. Residues count along the entry.
UniProt P9WNZ1, whole entry: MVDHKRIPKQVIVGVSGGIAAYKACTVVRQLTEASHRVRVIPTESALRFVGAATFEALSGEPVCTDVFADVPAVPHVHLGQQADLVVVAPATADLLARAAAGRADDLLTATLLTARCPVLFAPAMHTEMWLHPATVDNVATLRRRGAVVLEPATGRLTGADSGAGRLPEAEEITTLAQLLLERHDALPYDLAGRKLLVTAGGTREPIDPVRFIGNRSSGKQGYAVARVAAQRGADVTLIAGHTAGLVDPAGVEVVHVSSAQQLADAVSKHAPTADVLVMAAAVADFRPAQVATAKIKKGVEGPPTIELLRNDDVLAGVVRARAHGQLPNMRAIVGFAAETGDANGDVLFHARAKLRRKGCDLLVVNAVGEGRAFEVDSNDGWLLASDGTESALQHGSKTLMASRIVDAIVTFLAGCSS
UniProt Q8IDJ8, 1-583: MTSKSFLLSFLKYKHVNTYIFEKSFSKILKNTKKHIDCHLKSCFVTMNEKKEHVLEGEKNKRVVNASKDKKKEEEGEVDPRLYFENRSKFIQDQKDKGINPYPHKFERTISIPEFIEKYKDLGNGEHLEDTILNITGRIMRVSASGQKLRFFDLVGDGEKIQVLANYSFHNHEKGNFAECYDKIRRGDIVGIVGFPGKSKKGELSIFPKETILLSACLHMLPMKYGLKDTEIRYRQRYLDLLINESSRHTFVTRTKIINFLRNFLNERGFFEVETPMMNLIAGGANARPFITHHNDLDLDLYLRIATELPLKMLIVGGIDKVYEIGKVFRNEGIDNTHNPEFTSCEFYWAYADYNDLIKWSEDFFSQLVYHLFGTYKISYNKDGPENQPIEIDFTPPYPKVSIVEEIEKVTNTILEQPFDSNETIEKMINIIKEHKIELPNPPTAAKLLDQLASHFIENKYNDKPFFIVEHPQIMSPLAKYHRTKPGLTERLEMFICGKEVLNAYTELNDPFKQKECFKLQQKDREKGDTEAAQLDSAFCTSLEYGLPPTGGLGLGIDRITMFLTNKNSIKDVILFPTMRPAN
UniProt P9WFT3, whole entry: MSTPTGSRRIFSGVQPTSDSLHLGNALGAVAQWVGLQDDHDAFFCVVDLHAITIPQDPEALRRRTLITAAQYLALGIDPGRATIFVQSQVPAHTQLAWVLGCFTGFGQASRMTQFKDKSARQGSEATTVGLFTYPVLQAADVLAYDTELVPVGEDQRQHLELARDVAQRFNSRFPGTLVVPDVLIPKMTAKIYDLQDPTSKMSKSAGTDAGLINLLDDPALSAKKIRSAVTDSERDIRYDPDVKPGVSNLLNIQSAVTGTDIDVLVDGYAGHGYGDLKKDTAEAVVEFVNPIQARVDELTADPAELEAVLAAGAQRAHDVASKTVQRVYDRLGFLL
UniProt I6X8D2, whole entry: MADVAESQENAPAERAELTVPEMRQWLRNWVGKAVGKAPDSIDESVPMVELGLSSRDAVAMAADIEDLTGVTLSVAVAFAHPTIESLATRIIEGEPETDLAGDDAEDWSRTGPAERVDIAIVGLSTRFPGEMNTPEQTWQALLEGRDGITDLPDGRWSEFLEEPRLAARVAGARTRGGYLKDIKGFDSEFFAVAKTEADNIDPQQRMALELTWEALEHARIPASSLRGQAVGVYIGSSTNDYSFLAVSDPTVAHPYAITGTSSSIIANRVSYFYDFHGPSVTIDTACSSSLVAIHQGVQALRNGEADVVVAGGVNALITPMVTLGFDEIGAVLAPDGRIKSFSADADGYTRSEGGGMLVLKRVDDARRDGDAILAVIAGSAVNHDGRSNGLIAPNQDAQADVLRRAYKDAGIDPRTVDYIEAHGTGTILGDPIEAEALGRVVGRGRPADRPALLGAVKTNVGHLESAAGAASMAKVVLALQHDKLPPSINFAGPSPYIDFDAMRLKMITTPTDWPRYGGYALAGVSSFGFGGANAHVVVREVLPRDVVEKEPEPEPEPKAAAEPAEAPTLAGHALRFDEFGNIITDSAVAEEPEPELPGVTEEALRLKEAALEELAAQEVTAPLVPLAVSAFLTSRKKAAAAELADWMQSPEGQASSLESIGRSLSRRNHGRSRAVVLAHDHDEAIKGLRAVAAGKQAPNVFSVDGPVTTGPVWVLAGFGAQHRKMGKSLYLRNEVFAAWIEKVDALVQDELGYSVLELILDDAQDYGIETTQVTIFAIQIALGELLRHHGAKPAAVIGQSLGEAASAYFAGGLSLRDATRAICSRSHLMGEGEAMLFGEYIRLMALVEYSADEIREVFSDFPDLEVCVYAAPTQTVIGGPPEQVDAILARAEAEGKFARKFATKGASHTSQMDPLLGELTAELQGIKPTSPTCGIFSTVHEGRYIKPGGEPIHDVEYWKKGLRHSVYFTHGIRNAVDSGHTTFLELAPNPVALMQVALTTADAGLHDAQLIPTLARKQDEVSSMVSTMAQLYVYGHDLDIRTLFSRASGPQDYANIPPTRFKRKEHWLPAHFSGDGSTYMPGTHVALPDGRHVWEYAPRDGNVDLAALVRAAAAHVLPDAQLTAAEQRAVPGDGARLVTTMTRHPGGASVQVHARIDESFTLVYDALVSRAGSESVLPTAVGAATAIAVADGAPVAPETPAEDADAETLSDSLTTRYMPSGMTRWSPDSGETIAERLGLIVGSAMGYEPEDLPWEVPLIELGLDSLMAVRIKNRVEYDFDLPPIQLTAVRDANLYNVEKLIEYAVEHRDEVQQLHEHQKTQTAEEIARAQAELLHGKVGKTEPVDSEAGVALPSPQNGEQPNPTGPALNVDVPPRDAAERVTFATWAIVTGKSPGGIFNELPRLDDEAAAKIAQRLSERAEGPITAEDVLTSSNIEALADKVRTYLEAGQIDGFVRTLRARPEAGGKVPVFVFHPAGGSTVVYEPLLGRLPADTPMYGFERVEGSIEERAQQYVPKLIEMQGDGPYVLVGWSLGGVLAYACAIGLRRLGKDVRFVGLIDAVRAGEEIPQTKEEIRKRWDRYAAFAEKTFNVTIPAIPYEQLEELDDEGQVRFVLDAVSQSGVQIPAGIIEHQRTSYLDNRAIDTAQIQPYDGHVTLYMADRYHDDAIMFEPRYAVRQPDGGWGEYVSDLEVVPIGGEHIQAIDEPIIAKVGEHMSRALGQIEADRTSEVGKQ

CoaBC: 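Coenzyme A biosynthesis protein CoaBC, Mycobacterium tuberculosis (UniProt P9WNZ1). Enzyme assay of CoaBC with a phosphate dye (Biomol Green) read at 650 nm. Tested at 30 µM. Direction is inferred from only a few compounds that gave an IC50; most scored high, so higher reads as stronger inhibition. Most strong results did not repeat in a second test. About 67,000 compounds were tested under these conditions; 0.06% (about 40) showed 50% or more at least once.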
PfKRS1: 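Enzyme assay of the cytosolic lysyl-tRNA synthetase in 384-well plates, read by luminescence. Target: Lysine-tRNA ligase, Plasmodium falciparum 3D7 (UniProt Q8IDJ8). Concentration: 30 µM. Direction is inferred from only a few compounds that gave an IC50; most scored high, so higher reads as stronger inhibition. Of about 69,000 compounds tested this way, about 49 (0.071%) reached 50% or more in at least one test.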
Toxoplasma: 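Assay of Toxoplasma gondii numbers, read through their beta-galactosidase reporter with a colour substrate. Compounds at 10 µM. The record gives no direction; the compounds picked for IC50 retests had high values, so higher reads as fewer parasites. Of about 67,000 compounds tested this way, about 260 (0.38%) reached 50% or more in at least one test.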
MtTrpRS: 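Enzyme assay of tryptophanyl-tRNA synthetase; the read-out is not stated. Target: Tryptophan-tRNA ligase, Mycobacterium tuberculosis (UniProt P9WFT3). Compounds at 10 µM. Higher most likely means stronger inhibition; the record gives no direction and few retests gave an IC50. About 65,000 compounds were tested under these conditions; 0.098% (about 64) showed 50% or more at least once.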
Pks13 thioesterase: 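Enzyme assay of the thioesterase domain of polyketide synthase 13; the read-out is not stated. Target: Polyketide synthase Pks13, Mycobacterium tuberculosis (UniProt I6X8D2). Concentration: 30 µM. The record gives no direction; the compounds picked for IC50 retests had high values, so higher reads as stronger inhibition. About 67,000 compounds were tested under these conditions; 0.46% (about 300) showed 50% or more at least once.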

Results are given as percent effect. The record does not define 0% and 100%; most values in the screen are far below 50% and negative numbers occur (in some assays of this library far below -100). Compounds were drawn at random from those tested, without regard to their results. Two or more numbers in one place are separate tests of the same structure; such repeats can differ widely.

{"compound": "Cc1noc(C)c1CN1CC[C@H]2OCC[C@@]2(C(=O)NCC2CC2)C1", "CoaBC": 3.854, "PfKRS1": 0.8326, "MtTrpRS": 1.757, "Pks13 thioesterase": -7.62}
{"compound": "O=C(Cc1ccc2c(c1)CCC2)NCCNc1ncccn1", "CoaBC": 5.175, "PfKRS1": 3.208, "Toxoplasma": -5.838, "MtTrpRS": -0.4873, "Pks13 thioesterase": -8.113}
{"compound": "COCC1CCN(S(=O)(=O)c2ccc(C(=O)NCC(F)F)cc2)C1", "stereo": "stereo not drawn", "CoaBC": 2.76, "PfKRS1": 5.31, "Toxoplasma": 4.083, "MtTrpRS": -1.089, "Pks13 thioesterase": -14.6}
{"compound": "COc1cccc(CN(C)C(=O)c2ccc(NC(C)=O)s2)c1OC", "CoaBC": 2.177, "PfKRS1": -1.331, "Toxoplasma": 5.668, "MtTrpRS": 4.756, "Pks13 thioesterase": 13.92}
{"compound": "CCC1CN(C(=O)Nc2cnc3c(cnn3C(C)C)c2)CCO1", "stereo": "stereo not drawn", "CoaBC": 6.071, "PfKRS1": 0.1993, "Toxoplasma": -0.2154, "MtTrpRS": -1.263, "Pks13 thioesterase": 0.3954}
{"compound": "CC(C)c1nc(N2CCC(N3CCCCCC3)CC2)c2cnn(C)c2n1", "CoaBC": 5.331, "PfKRS1": -0.9293, "Toxoplasma": 1.455, "MtTrpRS": -2.415, "Pks13 thioesterase": 1.065}
{"compound": "CCc1cnc(CNC(=O)NCCCO)s1", "CoaBC": 3.236, "PfKRS1": 1.087, "Toxoplasma": -3.735, "MtTrpRS": 3.028, "Pks13 thioesterase": 0.05456}
{"compound": "CCN1CCCC(c2c(-c3ccccc3)ncn2Cc2cccnc2)C1", "stereo": "stereo not drawn", "CoaBC": -18.33, "PfKRS1": 13.54, "Toxoplasma": -4.642, "MtTrpRS": -2.478, "Pks13 thioesterase": -9.767}
{"compound": "Cc1ccc(N(C)C2CCN(C(=O)CCc3ccco3)CC2)nn1", "CoaBC": "21.16 and 30.02", "PfKRS1": 2.118, "Toxoplasma": 3.877, "MtTrpRS": 3.79, "Pks13 thioesterase": -0.3812}
{"compound": "CC(C)CN1C(=O)CO[C@@H]2CN(C(=O)C3CCOC3)C[C@H]21", "stereo": "stereo partly drawn", "CoaBC": -45.18, "PfKRS1": -6.2, "MtTrpRS": 4.527, "Pks13 thioesterase": 12.22}
{"compound": "O=C(O)CC(O)(CC(=O)O)C(=O)O.[H][C@@]12CCCN1C[C@H](CCSC)N(Cc1cnn(CC)c1)C2", "Toxoplasma": 7.964}
{"compound": "O=C(NC[C@@H]1CCCO1)c1ccc(S(=O)(=O)N[C@@H]2CCNC2)cc1", "CoaBC": 0, "PfKRS1": -1.725, "Toxoplasma": -15.22, "MtTrpRS": 1.586, "Pks13 thioesterase": -3.514}
{"compound": "CC(=O)N1CC2(CCNCC2)c2cc(Cl)ccc21.Cl", "Toxoplasma": -2.159}
{"compound": "Cc1cnc(N2CCC3(CC2)CC(NS(C)(=O)=O)CO3)nc1", "stereo": "stereo not drawn", "CoaBC": 2.24, "PfKRS1": 2.008, "Toxoplasma": -2.268, "MtTrpRS": -3.607, "Pks13 thioesterase": 42.75}
{"compound": "CC(C(=O)NCC(F)(F)F)N1CCC(N2CCN(C)C2=O)CC1", "stereo": "stereo not drawn", "CoaBC": 2.362, "PfKRS1": -0.3815, "Toxoplasma": -24.42, "MtTrpRS": -4.355, "Pks13 thioesterase": 4.306}
{"compound": "CC1CC(=O)c2cc(C(=O)N3CCc4ccccc43)c(=O)[nH]c2C1", "stereo": "stereo not drawn", "CoaBC": 7.975, "PfKRS1": 2.431, "Toxoplasma": -27.42, "MtTrpRS": 2.034, "Pks13 thioesterase": 1.229}
{"compound": "CCCNC(=O)CCNC(=O)c1ccccc1N1CCOCC1", "CoaBC": 3.515, "PfKRS1": 3.221, "Toxoplasma": 4.916, "MtTrpRS": -2.694}
{"compound": "C/C(NC(=O)c1ccco1)=C1/C(=O)C[C@@H]2[C@H]1C2(C)C", "CoaBC": -2.651, "PfKRS1": -0.4576, "MtTrpRS": -2.524, "Pks13 thioesterase": 0.6237}
{"compound": "O=C(CCN1CCCO1)N1CC[C@@H](c2ccc3ccccc3c2)[C@H](O)C1", "CoaBC": 4.139, "PfKRS1": 2.401, "Toxoplasma": -5.07, "MtTrpRS": -4.204, "Pks13 thioesterase": -15.62}
{"compound": "CC(=O)N1CCC2(CC1)CN(CC(C)C)CC21CCNC1=O.O=C(O)C(F)(F)F", "stereo": "stereo not drawn", "Toxoplasma": -30.48}
{"compound": "CC(C)Cc1noc(CN2CCN(S(C)(=O)=O)CC2)n1", "CoaBC": 8.184, "PfKRS1": 0.4536, "Toxoplasma": 3.214, "MtTrpRS": 1.768, "Pks13 thioesterase": -23.83}
{"compound": "Cc1ccc(Cl)cc1S(=O)(=O)NCc1cnc(N(C)C)n1C", "CoaBC": 4.365, "PfKRS1": 2.991, "Toxoplasma": -22.35, "MtTrpRS": 1.144, "Pks13 thioesterase": -16.39}
{"compound": "CCn1cc(CN2CCC(O)(Cn3ccc4ncccc43)CC2)cn1", "CoaBC": 3.186, "PfKRS1": 5.166, "Toxoplasma": -9.632, "Pks13 thioesterase": 1.304}
{"compound": "CO[C@@H]1CCN(c2nnc(C)s2)C[C@@H]1Cc1cccc(C)c1", "CoaBC": -19.35, "PfKRS1": 3.589, "MtTrpRS": -4.926, "Pks13 thioesterase": -30.5}
{"compound": "NC(=O)C1CCN(C(=O)CSC2CCCc3ccccc32)CC1", "stereo": "stereo not drawn", "CoaBC": -4.637, "PfKRS1": 3.346, "Toxoplasma": -5.485, "MtTrpRS": -0.2018, "Pks13 thioesterase": -23.13}

3 of the entries, repeated:

compound	CoaBC	PfKRS1	Toxoplasma	MtTrpRS	Pks13 thioesterase
O=C(CCN1CCCO1)N1CC[C@@H](c2ccc3ccccc3c2)[C@H](O)C1	4.139	2.401	-5.07	-4.204	-15.62
Cc1cnc(N2CCC3(CC2)CC(NS(C)(=O)=O)CO3)nc1 (stereo not drawn)	2.24	2.008	-2.268	-3.607	42.75
CCc1cnc(CNC(=O)NCCCO)s1	3.236	1.087	-3.735	3.028	0.05456

Measurements from “University of Dundee, Small-Polar-MMV Screening Library” (2021), ChEMBL document CHEMBL3988442.